From PubChem BioAssay AID588499 (NMMLSC, 2011)
Screen size: about 360,000 compounds; about 610 (0.17%) were called active. Inconclusive results, whose numbers are uncertain, are shown with a selection of clear calls. Cut-off read from the data, not from the text of the source: active = inhibition above about 30%; inconclusive = no clear call, values can overlap the other calls; inactive = below that.

Tested on: Botulinum neurotoxin type A light chain protease (Clostridium botulinum A str. ATCC 3502)
Experiment: blockers of BoNT/A LC substrate cleavage – biochemical, flow cytometry, MLPCN library, primary screen (AID 588499); note: plate controls were buffer without enzyme for full effect and enzyme alone for no effect
Settings: multiplex microsphere protease substrate cleavage, at 10 µM, stronger effect = higher value

Row | Structure (SMILES) | inhibition
1 | COc1ccc(/C=N/NC(=O)CSCC(=O)Nc2ccccc2)cc1OC | inconclusive: 9.7%
2 | O=C1N=c2ccccc2=C1c1sc(Nc2cccc(O)c2)nc1O | inconclusive: -0.6%
3 | COc1ccc(-c2cc3ccccc3n2CC(O)Cn2nc(C)cc2C)cc1 (stereo unspecified) | active: 152%
4 | CC1(C)CC(=O)C=C(Nc2cccc(F)c2)C1 | inactive: 3.7%
5 | COc1ccc2c(c1)C1C=CCC1C(c1cc3c(cc1Br)OCO3)N2 (stereo unspecified) | inconclusive: 1.6%
6 | CCCC(=O)N(C1CC(C)C(C#N)(C#N)C1(C#N)C#N)N(C)C (stereo unspecified) | inconclusive: 6.4%
7 | CN(C)N=Nc1ccc(S(=O)(=O)N2CCSC2C(=O)O)cc1 (stereo unspecified) | inconclusive: -6.5%
8 | CC(C)Cc1ccc(-c2cc3nc(NCCOc4ccccc4)ccn3n2)cc1 | inactive: 0%
9 | O=C(Nc1ccc2nc(-c3cccs3)c(-c3cccs3)nc2c1)N1CCOCC1 | active: 68.2%
10 | COc1ccc(/C=C2\SC(=S)N(CCCC(=O)Nc3ccccn3)C2=O)cc1OC | active: 39%
11 | CCSc1nnc(NC(=O)CSc2nnc(Cc3cccn3C)n2CCc2ccccc2)s1 | inconclusive: 2.5%
12 | CC(C)OC(=O)Cn1c(=O)sc2ccccc21 | inconclusive: -2.4%
13 | COC(=O)c1cccc(CN2C(=O)C(C)Sc3cc(Cl)ccc32)c1 (stereo unspecified) | inactive: -0.1%
14 | Cn1c2ccccc2c2ncn(Cc3ccc(F)cc3)c(=O)c21 | inconclusive: 26.7%
15 | Cc1nn(C)c(Cl)c1NC(=O)OCc1ccc(Cl)cc1Cl | inconclusive: -3.5%
16 | CN(C)c1ccc(CN(C(=O)COc2ccc(Br)cc2)C2CCS(=O)(=O)C2)cc1 (stereo unspecified) | inconclusive: 34.3%
17 | COc1ccc(CN2CCN(C3CCC3)CC2CCO)cc1C (stereo unspecified) | inconclusive: -0.7%
18 | Cn1c(CNC(=O)c2cccs2)nnc1SCC(=O)Nc1ccc(Cl)cc1 | inconclusive: 1.9%
19 | COCCn1c(N)c(C#N)c2nc3ccccc3nc21 | inactive: 0.9%
20 | Cc1cc(-c2nnc(-c3cccc(C(F)(F)F)c3)o2)no1 | inconclusive: -38.4%
21 | COc1ccc(C(=O)Nn2c(SCC(=O)N3CCC(C)CC3)nc3ccccc3c2=O)cc1 | inconclusive: -3.3%
22 | O=C(CN1CCN(Cc2ccccc2)CC1)Nc1cccc(C(F)(F)F)c1 | inconclusive: -2.3%
23 | Cn1c2ccccc2n2c(=O)cc(-c3ccccc3)c(C#N)c12 | inconclusive: -35.8%

Row | Structure (SMILES) | inhibition
24 | COc1ccc(C2(C(=O)NCCCN(C)C)CCOCC2)cc1 | inconclusive: -1.4%
25 | Cc1cc(C(=O)CSc2nncs2)c(C)n1-c1c(C)n(C)n(-c2ccccc2)c1=O | inconclusive: 2.2%
26 | CCOc1ccc(NC(=O)c2ccco2)cc1 | inconclusive: -4.1%
27 | CCCCn1c(CN2CCN(c3cccc(Cl)c3)CC2)nc2c1c(=O)n(C)c(=O)n2C | inactive: 6.1%
28 | CC(C)CN(C(=O)COC(=O)Cc1n[nH]c(=O)c2ccccc12)C1CCS(=O)(=O)C1 (stereo unspecified) | inconclusive: 1.4%
29 | CC(=O)C1=C(Nc2ccccc2)CC(C)(O)C(C(C)=O)C1c1ccccc1 (stereo unspecified) | inconclusive: 1.2%
30 | CC(C)=CCSc1nnc([C@@H](NC(=O)OC(C)(C)C)C(C)C)o1 | inconclusive: -0.4%
31 | CCOC(=O)C(CC)(CC)C(=O)/C=C/c1ccc(OC)cc1 | inconclusive: -25.4%
32 | O=[N+]([O-])c1cccc(C2CC(c3ccccc3)=NN2c2ccccc2)c1 (stereo unspecified) | inactive: 0.4%
33 | CN(C)CCCNS(=O)(=O)c1cc(Cl)ccc1Cl | inconclusive: 0.3%
34 | CSCC[C@H](N)C(=O)N1CCC(C(=O)N[C@H](C)C(=O)NC(C)c2ccccc2)CC1 (stereo partly specified) | inactive: 0.1%
35 | Nc1nc(NCc2ccco2)nc(N2CCOCC2)c1[N+](=O)[O-] | inconclusive: -1.4%
36 | CCCCNC(=O)c1cc2cccc([N+](=O)[O-])c2[nH]1 | inconclusive: -21.8%
37 | CCN(CC)c1ccc2cc(S(=O)(=O)c3ccc(Cl)cc3)c(=O)oc2c1 | active: 67.5%
38 | CC(C)c1ccc(-c2nn[nH]n2)cc1 | inconclusive: -10.6%
39 | CCOC(=O)c1c(C)nc2c(c1-c1cc(OC)c(OC)c(OC)c1)C(=O)c1ccccc1-2 | inconclusive: 8%
40 | COc1cccc(NC(=O)c2ccccc2-c2ccccc2C(=O)O)c1 | inconclusive: -1.5%
41 | Cn1cc(SCC(=O)O)c2ccccc21 | inconclusive: 1.5%
42 | N#CCO/N=C(\c1ccccc1)c1ccncc1 | inconclusive: -0.1%
43 | NC(=O)C1CCN(CCC(=O)Nc2ccc(Br)cc2)CC1 | inactive: 0.2%
44 | CN(Cc1ccno1)Cc1cn(Cc2ccccc2)nc1-c1ccc2c(c1)OCO2 | inactive: 0.2%
45 | O=C(c1ccco1)c1cn(Cc2ccccc2Cl)c2ccccc12 | inconclusive: -1.8%
46 | CCOc1ccc(-n2c(=S)sc3c(=O)[nH]c(SCC(=O)NCc4ccco4)nc32)cc1 | inconclusive: 3.8%

4 of the compounds above, in CSV form:
Row,Structure (SMILES),inhibition
2,O=C1N=c2ccccc2=C1c1sc(Nc2cccc(O)c2)nc1O,inconclusive: -0.6%
3,COc1ccc(-c2cc3ccccc3n2CC(O)Cn2nc(C)cc2C)cc1 (stereo unspecified),active: 152%
4,CC1(C)CC(=O)C=C(Nc2cccc(F)c2)C1,inactive: 3.7%
5,COc1ccc2c(c1)C1C=CCC1C(c1cc3c(cc1Br)OCO3)N2 (stereo unspecified),inconclusive: 1.6%

A different layout for part of the listing above:

| Row | Structure (SMILES) | inhibition |
| --- | --- | --- |
| 18 | Cn1c(CNC(=O)c2cccs2)nnc1SCC(=O)Nc1ccc(Cl)cc1 | inconclusive: 1.9% |
| 22 | O=C(CN1CCN(Cc2ccccc2)CC1)Nc1cccc(C(F)(F)F)c1 | inconclusive: -2.3% |

(next part)

Row | Structure (SMILES) | inhibition
47 | CC(C)c1ccccc1NC(=O)c1cnccn1 | inconclusive: -5.5%
48 | O=C(CN1C(=O)COc2ccccc21)Nc1ccccc1F | inconclusive: -3.9%
49 | Cc1ccc(C(=O)C2CCN(CC(=O)Nc3ccc4c(c3)OCCO4)CC2)cc1 | inactive: 0.6%
50 | COc1cccc(-n2nnc3c(=O)n(Cc4cccc(C)c4)cnc32)c1 | inactive: -0.1%
51 | CCCc1cc(C(=O)N2CCCC(Cc3ccccc3C)(C(=O)OCC)C2)no1 (stereo unspecified) | inactive: 3%
52 | CCc1ccccc1NC(=O)CCc1c(C)nc(SC)nc1C | inactive: -0.1%
53 | OCCC1CN(Cc2ccc(F)cc2)CCN1CCc1ccccc1 (stereo unspecified) | inconclusive: -2.4%
54 | O=C(CSc1nnc(C2CC2)n1-c1ccccc1)Nc1ccc(N2CCOCC2)cc1 | inconclusive: 0.5%
55 | O=C(NCCc1ccc(F)cc1)Nc1ccccc1 | inconclusive: -0.8%
56 | Cc1ccc(N2CN=c3s/c(=C\c4ccccn4)c(=O)n3C2)cc1 | inconclusive: 3.7%
57 | CN(c1ccccc1C(=O)Nc1ccc2c(c1)OCCO2)S(C)(=O)=O | inactive: -0.3%
58 | Cc1cc(C(=O)Nc2ccccc2C(F)(F)F)no1 | inconclusive: -2%
59 | COc1ccc(CCn2c(Br)nc3c2c(=O)[nH]c(=O)n3C)cc1 | inactive: -3.4%
60 | Cc1ccc(-c2n[nH]c(=S)n2Cc2ccccc2)cc1 | inconclusive: -0.7%
61 | COc1cc(/C=N\Nc2nc(-c3ccc(C)cc3)c(NC(C)=O)s2)ccc1O | inactive: 0.2%
62 | Cc1cc(NC(=O)CON=C(N)CC(=O)Nc2ccccc2Cl)ccc1Br | inactive: -0.1%
63 | COc1ccc(NC(=O)Nc2cccc(Cl)c2Cl)c(OC)n1 | inconclusive: -7.1%
64 | COc1ccccc1-c1ccc(=O)n(CC(=O)NC(C)(C)C)n1 | inconclusive: -2.9%
65 | CCCN(CCC)CCCNC(=O)CS(=O)Cc1nc(-c2ccc(OC)c(OC)c2)oc1C (stereo unspecified) | inconclusive: 24.1%
66 | COc1ccc(NC(=O)CSc2nnc(Cc3cccs3)n2-c2ccc(C)cc2)cc1 | inconclusive: 2%
67 | COc1ccc(CCNC(=O)CCC(=O)NC2CCCCC2)cc1OC | inconclusive: 7.2%
68 | Cc1nc(SCC(=O)c2ccc(Cl)cc2)c([N+](=O)[O-])[nH]1 | inconclusive: -4.6%
69 | COc1ccc(NC(=O)COC(=O)C23CCC(=O)N2c2ccccc2S3)cc1 (stereo unspecified) | inconclusive: -6.3%

Row | Structure (SMILES) | inhibition
70 | CC(=O)Nc1ccc(S(=O)(=O)NCC2(N3CCOCC3)CCCCC2)cc1 | inconclusive: 1.8%
71 | Cn1c(SCC(=O)NCc2ccc3c(c2)OCO3)nnc1-c1c[nH]c2ccccc12 | inconclusive: -2.3%
72 | CCCCC(O)(CCCC)C(=O)NN(C(=O)c1cccnc1Cl)c1ccccc1 | inconclusive: 15.1%
73 | COc1ccc2nc(C)cc(SCC(NC(C)=O)C(=O)OC(C)C)c2c1 (stereo unspecified) | inconclusive: 9%
74 | Cc1cc(C)c2c(c1)-c1cc(C)nn1C(c1ccc3c(c1)OCO3)N2 (stereo unspecified) | inconclusive: -4.1%
75 | COc1cccc(-c2nn3c(-c4ccccn4)nnc3s2)c1 | inconclusive: 5.9%
76 | CC1(C)C(=O)C2(CCCCC2)C(=O)OC1c1cccs1 (stereo unspecified) | inconclusive: 2%
77 | CC1(C)CC(=O)C=C(NCCN2CCN(C(=S)Nc3ccc(F)cc3)CC2)C1 | inconclusive: -0.3%
78 | Cc1ccc(S(=O)(=O)N2CCN(C(=O)c3n[nH]c(=O)c4ccccc34)CC2)c(C)c1 | inconclusive: -2.6%
79 | O=C(CCCn1c(=S)[nH]c2cc3c(cc2c1=O)OCO3)N1CCN(c2ccccn2)CC1 | inconclusive: 8.9%
80 | CCc1ccccc1NC(=O)COc1ccc2oc(-c3ccc(OC)cc3)cc(=O)c2c1 | inactive: -1.3%
81 | Oc1cccc(/C=C/c2ccc3cccc(O)c3n2)c1 | inactive: -4.2%
82 | CC1(C)CC(=O)C(C(c2ccco2)C2C(=O)CC(C)(C)CC2=O)C(=O)C1 | inactive: -0.6%
83 | O=C(Nc1cccc(Cl)c1)Nc1nccs1 | inconclusive: 11.4%
84 | CCCC(=O)N1CCN(C2=NS(=O)(=O)c3ccccc32)CC1 | inconclusive: -3.5%
85 | Cc1ccc(NC(=O)Cn2c([N+](=O)[O-])cnc2C)cc1 | inactive: 0.5%
86 | Cc1cc(NC(=O)c2cc(-c3cccc(Cl)c3)on2)no1 | inactive: 0.9%
87 | CC(=O)OCC(=O)C1(O)CCC2C3CCC4C(OC(C)=O)C(=O)CCC4(C)C3C(=O)CC21C (stereo unspecified) | inactive: 0.2%
88 | CCc1ccc(NC(=O)NCC2CCN(c3ccc(OC)cc3)C2)cc1 (stereo unspecified) | inactive: 0.5%
89 | CCOc1ccc(C2/C(=C(\O)c3ccc4c(c3)OCCO4)C(=O)C(=O)N2Cc2cccnc2)cc1OCC (stereo unspecified) | inactive: -1.3%
90 | CCC(CC)C(=O)Nc1cccc(C(=O)Nc2ccc(S(N)(=O)=O)cc2)c1 | inactive: -0.8%
91 | Cc1ccc(N2CC(C(=O)Nc3ccccc3C(=O)NC3CCCCC3)CC2=O)cc1C (stereo unspecified) | inconclusive: -1.5%
